Reference: PubChem BioAssay AID1224828 (NIAID, 2016)
In all, the deposit lists about 17,000 reagents; this is a random part of them. In the full data, 762 (4.5%) were called active. 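Active calls include both raised and lowered p65 entry, mostly lowered; wells with fewer than 50 cells lack a z-score.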 The raw values are shown without normalisation. A number with no mark means an inactive call.

Purpose: 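Knock-downs that increase or decrease LPS-induced p65 nuclear translocation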 (primary screen)
Cells: mouse RAW264.7 G9 macrophage reporter cells (GFP-p65, Tnf promoter-mCherry)
Reagent: siRNA pool against mouse genes, 100 nM
Timing: 2 days siRNA transfection, then 40 min LPS before fixation
Conditions: LPS (Salmonella minnesota R595) at 10 ng/ml
Read-out: 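Imaged p65 nuclear translocation ratio, normalised to the plate median, converted to robust z-scores and averaged across two replicates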
Scale: p65 translocation robust z-score: higher = more nuclear NF-kappaB p65 after LPS than the plate median; nuclear/cytoplasmic p65 ratio: higher = more nuclear NF-kappaB p65
Active means: 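Active if robust z is above 3.3 (negative regulators) or below -1.56, the Tlr4 control median (positive regulators); activity score 50 or more; control wells not called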
Meaning of the calls: active = hit (p65 shift raised or lowered); inactive = no clear change

Target gene	PubChem SID	p65 translocation robust z-score	nuclear/cytoplasmic p65 ratio, rep 1	nuclear/cytoplasmic p65 ratio, rep 2	low cell count flag
Tagln3	SID315471487		1.44	1.37	fewer than 50 cells per well; well left out of scoring
R3hdm1	SID315478495		1.33	1.22	fewer than 50 cells per well; well left out of scoring
Spata3	SID315473967	0.29	1.64	1.67	enough cells to score
Psenen	SID315472373	0.85	1.54	1.5	enough cells to score
Krtap5-1	SID315470836	-0.28	1.41	1.48	enough cells to score
Mrps30	SID315471984	-0.2	1.48	1.26	enough cells to score
Dpf2	SID315468949	-0.75	1.34	1.31	enough cells to score
Igtp	SID315467417	-0.47	1.49	1.36	enough cells to score
Hrh2	SID315467298	-0.8	1.43	1.43	enough cells to score
Ppp2r5e	SID315470489	-1.38	1.32	1.22	enough cells to score
Lipi	SID315481291	-0.46	1.48	1.39	enough cells to score
Armc10	SID315472901	-0.62	1.34	1.35	enough cells to score
Or4b1c	SID315480591	0.72	1.66	1.56	enough cells to score
Sytl2	SID315475850	-0.66	1.2	1.12	enough cells to score
Ptpn18	SID315468800	0.98	1.55	1.61	enough cells to score
Emg1	SID315467019	-0.11	1.72	1.54	enough cells to score
Npb	SID315477568	0.84	1.94	1.57	enough cells to score
Trim54	SID315471907	2.19	1.8	1.39	enough cells to score
Ckb	SID315465980	0.95	1.82	1.52	enough cells to score
Cilk1	SID315471604	0.62	1.72	1.45	enough cells to score
Fndc3a	SID315481090	0.2	1.59	1.52	enough cells to score
Upb1	SID315476361		1.52	1.28	fewer than 50 cells per well; well left out of scoring
Krit1	SID315475671	-0.48	1.34	1.38	enough cells to score
Pfdn4	SID315476778	-0.03	1.46	1.39	enough cells to score
Klhl17	SID315478853	1.35	1.61	1.57	enough cells to score
Fzd10	SID315476007	1.37	1.7	1.78	enough cells to score
Rufy1	SID315478020	1.39	1.6	1.37	enough cells to score
Muc15	SID315480846	-0.39	1.5	1.51	enough cells to score
Klrb1b	SID315467775	-1.15	1.44	1.23	enough cells to score
Klrb1b	SID315475722	1.48	1.71	1.67	enough cells to score
Slc2a5	SID315471566	0.01	1.49	1.55	enough cells to score
Slfn4	SID315469321	1.71	1.53	1.42	enough cells to score
Or5b12	SID315480348	0.41	1.7	1.45	enough cells to score
Sema7a	SID315469186		1.27	1.13	fewer than 50 cells per well; well left out of scoring
Rpf1	SID315474004		1.34	1.28	fewer than 50 cells per well; well left out of scoring
4930451E10Rik	SID315475538		1.02	1.09	fewer than 50 cells per well; well left out of scoring
Speer3	SID315474176	-0.27	1.35	1.23	enough cells to score
Mapkap1	SID315478601	0.17	1.55	1.8	enough cells to score
Mapkap1	SID315478602	0.15	1.4	1.37	enough cells to score
Acot3	SID315477353		1.13	1.09	fewer than 50 cells per well; well left out of scoring
Ppp4r4	SID315474996	-0.57	1.56	1.5	enough cells to score
Prkag3	SID315479546	-0.78	1.66	1.28	enough cells to score
Krtap19-5	SID315467706	-1.89 (active)	1.29	1.17	enough cells to score
Pign	SID315470603	0.47	1.53	1.3	enough cells to score
Ankrd13d	SID315473528		1.43	1.1	fewer than 50 cells per well; well left out of scoring
Stard10	SID315471344	0.97	1.58	1.31	enough cells to score
Sftpb	SID315469201	0.33	1.53	1.67	enough cells to score
Fgf16	SID315475749	-0.51	1.29	1.38	enough cells to score
Npy	SID315476832	3.94 (active)	2.56	1.66	enough cells to score
Or4c111	SID315480522	-0.27	1.72	1.45	enough cells to score
Gnb5	SID315466957		1.01	1.15	fewer than 50 cells per well; well left out of scoring
Ccdc202	SID315472612	0.95	1.43	1.37	enough cells to score
Alas1	SID315465378	-0.43	1.41	1.75	enough cells to score
Gramd4	SID315478288	0.81	1.75	1.92	enough cells to score
Cldn17	SID315479472	-1.03	1.42	1.63	enough cells to score
Oas1a	SID315479890	0.72	1.53	1.52	enough cells to score
Thap12	SID315474659	-1.15	1.42	1.19	enough cells to score
Smtnl1	SID315473602	-0.02	1.5	1.62	enough cells to score
Slc12a8	SID315477358	0.98	1.54	1.36	enough cells to score
